# The list shows a part of the results.
# Tested on: T1, CTL2-GFP (C. trachomatis L2/434/Bu, GFP-expressing)
# T1 construct: L2/434/Bu, GFP-expressing
# Set-up: species or system HeLa; Intracellular C. trachomatis growth in HeLa cells, bulk GFP fluorescence relative to DMSO
# Settings: bulk GFP, single well; 28.5 h, 10 µM; inhibitor
row,Structure (SMILES),% of control remaining
1,O=C(Nc1ccc(S(=O)(=O)NCC2CCCO2)cc1)c1cc(-c2ccccc2)nc2ccccc12 (stereo not drawn) [CBK267537],108.842%
2,O=C(CC1CCCC1)NCCn1nc(-c2cccs2)ccc1=O [CBK283841],98.0461%
3,COc1cc(/C=C2\NC(=S)NC2=O)c(Cl)cc1O [CBK102003],150.891%
4,CCc1nn(CC(=O)NC2CC2)c(=O)c2cc3sc(C)cc3n12 [CBK284099],122.523%
5,CC(=O)Nc1ccc(S(=O)(=O)N2CCC3(CC2)NC(=O)c2cc(-c4ccoc4)ccc2O3)cc1 [CBK115856],89.2181%
6,O=C(NC(Cc1cccs1)c1nccs1)c1ccncc1 (stereo not drawn) [CBK285134],118.442%
7,Cc1ccc(C(=O)c2coc3ccc(O)cc23)cc1 [CBK115557],135.006%
8,N#Cc1c(N)nc2c(c1-c1cccnc1)CCCC2 [CBK287885],141.019%
9,O=C(Nc1ccc(Br)c2cccnc12)c1ccc(Cn2cc(Cl)cn2)o1 [CBK265893],125.071%
10,Cc1ccc(C2C(C(=O)c3sc(-c4ccccc4)nc3C)=C(O)C(=O)N2CCN(C)C)o1 (stereo not drawn) [CBK234004],177.903%
11,Cc1ccc2c(CC(=O)N(C)CCc3cn[nH]c3)coc2c1 [CBK283239],115.486%
12,Cc1nccn1CC(C)C(=O)NCCN(C)C1CCCCC1 (stereo not drawn) [CBK282040],122.075%
13,O=C(Cc1ccccc1Cl)NCc1nnc(-c2cccs2)o1 [CBK284643],95.6653%
14,Cc1nn(S(=O)(=O)c2cccc3nsnc23)c(C)c1Cl [CBK270323],114.609%
15,Cc1ccsc1CN(C)C(=O)NC1CCCc2c1cnn2CCO (stereo not drawn) [CBK306349],97.3158%
16,CCN(CCO)c1ccc(Nc2cc(-c3cc4ccccc4o3)ncn2)cc1 [CBK090999],185.239%
17,CCNC(=O)N1CC2(CCN(CCS(=O)(=O)c3ccccc3)CC2)c2ccccc21 [CBK126698],117.068%
18,O=C(c1ccc2ccccc2n1)N1CCC(Cc2ccccc2)CC1 [CBK200184],103.183%
19,CC(=O)Nc1cccc(-c2cncc(N[C@H](CO)C(C)C)n2)c1 [CBK065475],92.2296%
20,COc1ccc(Cn2ncnc2CC2CCNCC2)cc1 [CBK307071],142.567%
21,c1ccc(-c2noc(CN3CCN(C(c4ccccc4)c4ccccc4)CC3)n2)cc1 [CBK265844],196.647%
22,Cc1ccc(N(CC(=O)N/N=C/c2ccccc2)S(=O)(=O)c2ccccc2)cc1 [CBK262090],117.091%
23,C=CCc1c(O)nc(SCC(=O)N2CCOCC2)[nH]c1=O [CBK073301],120.83%
24,Nc1nc2c(cnn2[C@H]2C[C@@H](O)[C@@H](CO)O2)c(=O)[nH]1 [CBK201223],131.366%
25,Cc1cc(C(F)(F)F)nn1CC(=O)Nc1sc2c(c1C#N)CCC(C)C2 (stereo not drawn) [CBK304619],130.614%
26,c1ccc(Oc2ccc(Nc3cccc(-c4ccc(N5CCOCC5)cc4)n3)cc2)cc1 [CBK036986],160.635%

row,Structure (SMILES),% of control remaining
1,Cc1csc(Sc2nccnc2NC(C)C)n1 [CBK115203],166.255%
2,Cn1c(COc2cncc(Cl)n2)cc2ccccc21 [CBK176002],104.403%
3,O=c1[nH]c2ncc(-c3ccccc3)nc2n1CCCN1CCOCC1 [CBK064805],101.026%
4,c1ccc(Nc2nccc(C3CCCN(Cc4ccc5[nH]ccc5c4)C3)n2)nc1 (stereo not drawn) [CBK286093],126.053%
5,O=C1NC2=C(C(=O)N(CCN3CCCC3)C2)C(c2ccccc2)N1 (stereo not drawn) [CBK283493],118.252%
6,CN1CCC(=NNC(=O)c2ccc(N(Cc3ccccc3)S(C)(=O)=O)cc2)CC1 [CBK262742],120.727%
7,Cn1c(SCC(=O)Nc2ccc(Oc3ccc(Cl)cc3)cc2)nnc1-c1ccncc1 [CBK269654],120.087%
8,COc1ccccc1C(=O)Nc1nc2ccc(NC(C)=O)cc2s1 [CBK287303],148.776%
9,O=C(Nc1[nH]nc(O)c1Cc1c(Cl)cccc1Cl)C1CCCCC1 [CBK084558],126.262%
10,c1cnc(NCc2cc3n(n2)CCN(CC2CCCCO2)C3)cn1 (stereo not drawn) [CBK306891],143.948%
11,OC1(c2cccnc2)C2CCCC1CN(Cc1ccc(F)cc1)C2 (stereo not drawn) [CBK285204],83.6568%
12,COC(=O)c1nc(Cl)c(Cl)nc1NS(=O)(=O)c1cccc(Cl)c1C [CBK004709],117.527%
13,NC(=O)C1(Cc2cccc(-c3cccs3)c2)CCN(C(=O)Cc2ccccc2)CC1 [CBK286272],149.462%
14,CC(=O)NCCNC(=O)c1ccc(-c2ccccc2)nc1NCCc1ccccn1 [CBK076595],125.165%
15,Cc1ccc(NC(=O)Cn2cnc3c(=O)n(C)c(=O)n(C)c32)c(O)c1 [CBK267002],142.334%
16,CN(CC(=O)O)C(=O)c1ccc(Oc2cccc(Br)c2)nc1 [CBK306485],106.566%
17,Cc1cccc(CN2CCC(NC(=O)c3cccc4nn[nH]c34)CC2)c1 [CBK305411],110.813%
18,Cc1ccc2c(c1)CCCN2C(=O)c1cccnc1NCc1ccc2c(c1)OCO2 [CBK160113],88.7399%
19,Cc1cc(COC(=O)N2CCCC(C(F)(F)F)C2)cc(C)n1 (stereo not drawn) [CBK200150],130.683%
20,Cc1cc2nc(-c3ccccn3)[nH]c2cc1C [CBK000122],0%
21,Cc1noc(C)c1C(=O)N1CCN(c2ccccc2)CC1 [CBK200165],99.9761%
22,O=C1Nc2c(cnn2-c2ccccc2Cl)C2=NCCCN12 [CBK283331],141.195%
23,COc1ccc(O)c(CN2CCC(N3CCCCC3)CC2)c1 [CBK261849],110.162%
24,CC(C)n1nccc1C(=O)NCC(c1ccc(F)cc1)N1CCCC1 (stereo not drawn) [CBK283025],122.884%
25,NC(=O)c1cc(-c2ccccc2)sc1NC(=O)C(Cc1ccccc1)N1C(=O)c2ccccc2C1=O (stereo not drawn) [CBK265843],155.826%
